# Reference: the supplement of paper PMC12542422
# Structures can show the parent of a compound that is named as a salt. ± gives the standard deviation of the averaged measurements. The list shows a part of the results. These are raw signals, not scaled to a control.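 HeLa cells imaged for ribosome-assembly readouts (ENP1 staining with or without export block, or inducible tagged ribosomal protein reporters); machine learning classified each cell's signal location against solvent (DMSO) controls. Hits exceeded the DMSO false-positive mean by five standard deviations, then were visually confirmed; three biological replicates.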
# Tested on: HeLa RPS2-YFP reporter
# Assay: fraction of reporter-positive cells with nuclear (nucleolar or nucleolar/nucleoplasmic) RPS2-YFP (MainHitrate); higher = more cells with nucleolar/nuclear readout signal (for ENP1 -LMB: less RNAPI inhibition; for +LMB ENP1 and RP reporters: stronger nuclear/nucleolar retention, i.e. ribosome biogenesis defect)
# Details: concentration: 1 µM; treatment time: 6 h
row,SMILES,fraction of reporter-positive cells with nuclear
1,CN1Cc2c(N)cccc2C(c2ccccc2)C1 (stereo unspecified) [Nomifensine Maleate],0.16 ± 0.13
2,COc1ccccc1OCC(O)COC(N)=O (stereo unspecified) [Methocarbamol (Robaxin)],0.121 ± 0.091
3,CCCSc1ccc2[nH]c(NC(=O)OC)nc2c1 [Albendazole (Albenza)],0.154 ± 0.092
4,CCCCCCCCCCCCCCCC[N+](C)(C)C [Cetrimonium Bromide],0.129 ± 0.12
5,CCOc1nc2cccc(C(=O)O)c2n1Cc1ccc(-c2ccccc2-c2nnn[nH]2)cc1 [Candesartan (Atacand)],0.108 ± 0.088
6,O=C(O)/C=C/c1ccc(Cn2ccnc2)cc1 [Ozagrel HCl],0.118 ± 0.087
7,C=C(c1ccc(C(=O)O)cc1)c1cc2c(cc1C)C(C)(C)CCC2(C)C [Bexarotene],0.0934 ± 0.075
8,Cc1c(Nc2ncccc2C(=O)O)cccc1C(F)(F)F [Flunixin meglumin],0.0707 ± 0.027
9,Fc1ccc(C(c2ccc(F)cc2)N2CCN(C/C=C/c3ccccc3)CC2)cc1 [Flunarizine 2HCl],0.104 ± 0.092
10,O=C1CCc2ccc(OCCCCN3CCN(c4cccc(Cl)c4Cl)CC3)cc2N1 [Aripiprazole (Abilify)],0.107 ± 0.092
11,CCN[C@H]1C[C@H](C)S(=O)(=O)c2sc(S(N)(=O)=O)cc21 [Dorzolamide HCL],0.103 ± 0.074
12,C/C(O)=C(\C#N)C(=O)Nc1ccc(C(F)(F)F)cc1 [Teriflunomide],0.0821 ± 0.056
13,C[N+](C)(C)CC(O)CC(=O)[O-] (racemic) [DL-Carnitine hydrochloride],0.106 ± 0.093
14,O=C(C1CCCCC1)N1CC(=O)N2CCc3ccccc3C2C1 (stereo unspecified) [Praziquantel (Biltricide)],0.0948 ± 0.073
15,"CC(C)(C)C(=O)OCOP(=O)(COCCn1cnc2c(N)ncnc21)OCOC(=O)C(C)(C)C [Adefovir Dipivoxil (Preveon, Hepsera)]",0.0909 ± 0.028
16,Cc1onc(-c2c(Cl)cccc2Cl)c1C(=O)N[C@@H]1C(=O)N2[C@@H]1SC(C)(C)[C@@H]2C(=O)O [Dicloxacillin Sodium],0.144 ± 0.094
17,"CN(C/C=C/C#CC(C)(C)C)Cc1cccc2ccccc12 [Terbinafine (Lamisil, Terbinex)]",0.118 ± 0.092
18,CC(C)/N=c1\cc2n(-c3ccc(Cl)cc3)c3ccccc3nc-2cc1Nc1ccc(Cl)cc1 [Clofazimine],0.16 ± 0.14

# 2 of these compounds in a different format:
row | SMILES | fraction of reporter-positive cells with nuclear
10 | O=C1CCc2ccc(OCCCCN3CCN(c4cccc(Cl)c4Cl)CC3)cc2N1 [Aripiprazole (Abilify)] | 0.107 ± 0.092
18 | CC(C)/N=c1\cc2n(-c3ccc(Cl)cc3)c3ccccc3nc-2cc1Nc1ccc(Cl)cc1 [Clofazimine] | 0.16 ± 0.14

# Additional compounds.

row,SMILES,fraction of reporter-positive cells with nuclear
1,Cc1noc(NS(=O)(=O)c2ccc(N)cc2)c1C [Sulfisoxazole],0.147 ± 0.084
2,CN1C2=CC(=O)/C(=N\NC(N)=O)C=C2CC1S(=O)(=O)O (stereo unspecified) [Carbazochrome sodium sulfonate],0.112 ± 0.086
3,CCCNC(C)C(=O)Nc1ccccc1C (stereo unspecified) [Prilocaine],0.0963 ± 0.07
4,CCN(CC)CCOc1ccc(C(=C(Cl)c2ccccc2)c2ccccc2)cc1 [Clomifene citrate (Serophene)],0.12 ± 0.096
5,CN(C)[C@@H](CCOc1cccc2ccccc12)c1ccccc1 [Dapoxetine hydrochloride (Priligy)],0.157 ± 0.083
6,CC=CC1=C(C(=O)O)N2C(=O)[C@@H](NC(=O)[C@H](N)c3ccc(O)cc3)[C@H]2SC1 [Cefprozil hydrate (Cefzil)],0.117 ± 0.064
7,CCN[C@H]1CN(CCCOC)S(=O)(=O)c2sc(S(N)(=O)=O)cc21 [Brinzolamide],0.122 ± 0.12
8,NC[C@H]1CC[C@H](C(=O)O)CC1 [Tranexamic acid (Transamin)],0.111 ± 0.055
9,Clc1ccc(COC(Cn2ccnc2)c2ccc(Cl)cc2Cl)c(Cl)c1 (stereo unspecified) [Miconazole (Monistat)],0.103 ± 0.069
10,C#C[C@]1(O)CC[C@H]2[C@@H]3CCc4cc(OC)ccc4[C@H]3CC[C@@]21C [Mestranol],0.113 ± 0.088
11,Cc1c(C(=O)NN2CCCCC2)nn(-c2ccc(Cl)cc2Cl)c1-c1ccc(Cl)cc1,0.142 ± 0.11
12,CN(Cc1cc(Br)cc(Br)c1N)C1CCCCC1 [Bromhexine HCl],0.133 ± 0.11
13,Nc1ccc(C(=O)O)c(O)c1 [Aminosalicylate sodium],0.128 ± 0.12
14,CC(=O)O[C@]1(C(C)=O)CC[C@H]2[C@@H]3C=C(C)C4=CC(=O)CC[C@]4(C)[C@H]3CC[C@@]21C [Megestrol Acetate],0.132 ± 0.11
15,CCCCOc1cc(C(=O)OCCN(CC)CC)ccc1N [Oxybuprocaine HCl],0.133 ± 0.11
16,CC(C[N+](C)(C)C)OC(N)=O (stereo unspecified) [Bethanechol chloride],0.106 ± 0.058
17,Cc1cc(C2CCCCC2)n(O)c(=O)c1 [Ciclopirox (Penlac)],0.109 ± 0.063
18,CC(C)c1nc(CN(C)C(=O)N[C@@H](CCN2CCOCC2)C(=O)N[C@H](CC[C@H](Cc2ccccc2)NC(=O)OCc2cncs2)Cc2ccccc2)cs1 [Cobicistat (GS-9350)],0.117 ± 0.11
